These are yes or no findings as the source states them, for the method shown. In cells and extracts the contact can be indirect. Some binding calls cover weakened binding; strength is not graded here.
Target: C-terminal region of TipC (amino acids 2725-3848) fused to GFP (D. discoideum) (UniProt Q55FG3)
Assay: co-IP; GFP-Trap A beads on lysates of D. discoideum tipC- cells overexpressing HA-Rab7A with TipC^2725-3848-GFP or GFP alone; western blot with anti-HA and anti-GFP; 10 mM Tris-HCl pH 7.5, 150 mM NaCl, 4 h at 4°C

The chains behind the UniProt entries cited, without tags or fusion partners. Residues count along the entry.
UniProt Q55FG3, residues 2725-3848: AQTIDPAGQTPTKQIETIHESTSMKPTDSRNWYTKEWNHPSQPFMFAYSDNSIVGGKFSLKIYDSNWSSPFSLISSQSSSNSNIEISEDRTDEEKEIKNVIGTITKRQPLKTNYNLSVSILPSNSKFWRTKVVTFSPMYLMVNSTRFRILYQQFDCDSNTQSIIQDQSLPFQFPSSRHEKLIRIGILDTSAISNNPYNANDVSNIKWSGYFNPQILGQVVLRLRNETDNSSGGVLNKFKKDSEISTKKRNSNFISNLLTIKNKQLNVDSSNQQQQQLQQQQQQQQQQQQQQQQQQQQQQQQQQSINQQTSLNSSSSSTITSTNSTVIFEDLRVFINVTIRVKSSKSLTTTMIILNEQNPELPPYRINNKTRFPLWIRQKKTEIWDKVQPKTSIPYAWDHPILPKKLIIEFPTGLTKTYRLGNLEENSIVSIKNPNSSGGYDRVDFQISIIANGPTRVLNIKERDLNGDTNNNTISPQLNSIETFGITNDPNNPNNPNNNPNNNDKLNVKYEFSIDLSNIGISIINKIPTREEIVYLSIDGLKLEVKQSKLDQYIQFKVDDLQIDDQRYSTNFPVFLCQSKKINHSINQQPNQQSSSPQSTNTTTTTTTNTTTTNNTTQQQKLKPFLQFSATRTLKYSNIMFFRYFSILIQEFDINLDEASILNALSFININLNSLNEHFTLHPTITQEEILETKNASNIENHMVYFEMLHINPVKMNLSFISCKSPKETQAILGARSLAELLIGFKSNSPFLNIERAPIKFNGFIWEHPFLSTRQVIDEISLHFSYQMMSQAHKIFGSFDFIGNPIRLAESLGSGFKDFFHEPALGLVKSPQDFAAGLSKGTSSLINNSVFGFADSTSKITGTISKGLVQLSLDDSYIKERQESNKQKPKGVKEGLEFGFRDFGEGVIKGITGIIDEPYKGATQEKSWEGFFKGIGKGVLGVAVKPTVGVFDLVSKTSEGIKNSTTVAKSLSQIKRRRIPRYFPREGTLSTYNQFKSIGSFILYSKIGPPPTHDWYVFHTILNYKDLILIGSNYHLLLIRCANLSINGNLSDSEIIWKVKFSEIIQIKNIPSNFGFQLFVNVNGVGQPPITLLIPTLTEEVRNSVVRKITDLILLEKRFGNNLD
UniProt P36411: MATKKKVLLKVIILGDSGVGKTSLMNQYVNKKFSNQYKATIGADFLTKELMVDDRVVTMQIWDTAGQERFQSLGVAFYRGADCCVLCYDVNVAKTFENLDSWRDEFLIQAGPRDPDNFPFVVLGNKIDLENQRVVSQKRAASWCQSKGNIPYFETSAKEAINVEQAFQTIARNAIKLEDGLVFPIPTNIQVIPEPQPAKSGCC

With “hemagglutinin (HA)-tagged Rab7A (from UniProt P36411 1-203)” the binding was “binds”.
